Data reported in the supplement of paper PMC10849652.
Some of the results follow.

Protein sequences, listed by entry. Tags and fused reporters are not part of them. Lines headed by an entry give the natural chain unless they say otherwise; changes in a name come on top.
UniProt Q5JQC4: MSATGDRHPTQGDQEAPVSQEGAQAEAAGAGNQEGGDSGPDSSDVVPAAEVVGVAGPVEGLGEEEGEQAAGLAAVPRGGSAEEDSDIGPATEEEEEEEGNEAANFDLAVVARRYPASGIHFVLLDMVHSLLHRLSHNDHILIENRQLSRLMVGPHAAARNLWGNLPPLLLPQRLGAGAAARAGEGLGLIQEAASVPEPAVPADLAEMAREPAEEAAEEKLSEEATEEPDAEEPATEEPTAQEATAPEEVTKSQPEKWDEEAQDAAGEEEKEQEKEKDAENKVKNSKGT
UniProt P61962: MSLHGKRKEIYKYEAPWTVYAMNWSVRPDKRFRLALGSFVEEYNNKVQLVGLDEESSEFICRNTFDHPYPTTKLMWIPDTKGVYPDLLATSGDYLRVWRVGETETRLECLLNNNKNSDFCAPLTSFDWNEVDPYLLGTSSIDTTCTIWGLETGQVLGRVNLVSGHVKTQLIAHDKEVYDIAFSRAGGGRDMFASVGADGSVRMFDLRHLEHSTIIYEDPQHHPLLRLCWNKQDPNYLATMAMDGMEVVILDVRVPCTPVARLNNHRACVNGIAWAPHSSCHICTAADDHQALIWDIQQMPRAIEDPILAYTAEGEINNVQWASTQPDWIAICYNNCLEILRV
UniProt P0DMU9: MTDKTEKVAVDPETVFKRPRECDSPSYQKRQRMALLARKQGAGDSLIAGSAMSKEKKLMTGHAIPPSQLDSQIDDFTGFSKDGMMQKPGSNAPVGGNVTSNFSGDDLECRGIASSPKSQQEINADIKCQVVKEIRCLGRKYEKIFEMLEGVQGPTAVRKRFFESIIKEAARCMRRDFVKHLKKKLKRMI
UniProt P00387: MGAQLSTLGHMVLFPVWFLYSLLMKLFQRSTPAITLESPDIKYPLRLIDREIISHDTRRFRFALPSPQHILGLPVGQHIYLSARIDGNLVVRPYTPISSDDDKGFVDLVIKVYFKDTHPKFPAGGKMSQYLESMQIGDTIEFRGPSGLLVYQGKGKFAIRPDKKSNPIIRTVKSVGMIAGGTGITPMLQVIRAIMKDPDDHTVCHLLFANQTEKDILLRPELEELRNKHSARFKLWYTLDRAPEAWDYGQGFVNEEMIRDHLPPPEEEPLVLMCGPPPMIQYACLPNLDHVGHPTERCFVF
UniProt O60888: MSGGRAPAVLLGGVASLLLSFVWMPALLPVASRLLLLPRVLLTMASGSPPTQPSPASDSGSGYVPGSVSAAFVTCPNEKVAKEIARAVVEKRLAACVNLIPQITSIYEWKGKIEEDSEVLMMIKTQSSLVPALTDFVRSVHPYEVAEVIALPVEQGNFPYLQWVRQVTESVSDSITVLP
UniProt Q13618, whole entry, looked up: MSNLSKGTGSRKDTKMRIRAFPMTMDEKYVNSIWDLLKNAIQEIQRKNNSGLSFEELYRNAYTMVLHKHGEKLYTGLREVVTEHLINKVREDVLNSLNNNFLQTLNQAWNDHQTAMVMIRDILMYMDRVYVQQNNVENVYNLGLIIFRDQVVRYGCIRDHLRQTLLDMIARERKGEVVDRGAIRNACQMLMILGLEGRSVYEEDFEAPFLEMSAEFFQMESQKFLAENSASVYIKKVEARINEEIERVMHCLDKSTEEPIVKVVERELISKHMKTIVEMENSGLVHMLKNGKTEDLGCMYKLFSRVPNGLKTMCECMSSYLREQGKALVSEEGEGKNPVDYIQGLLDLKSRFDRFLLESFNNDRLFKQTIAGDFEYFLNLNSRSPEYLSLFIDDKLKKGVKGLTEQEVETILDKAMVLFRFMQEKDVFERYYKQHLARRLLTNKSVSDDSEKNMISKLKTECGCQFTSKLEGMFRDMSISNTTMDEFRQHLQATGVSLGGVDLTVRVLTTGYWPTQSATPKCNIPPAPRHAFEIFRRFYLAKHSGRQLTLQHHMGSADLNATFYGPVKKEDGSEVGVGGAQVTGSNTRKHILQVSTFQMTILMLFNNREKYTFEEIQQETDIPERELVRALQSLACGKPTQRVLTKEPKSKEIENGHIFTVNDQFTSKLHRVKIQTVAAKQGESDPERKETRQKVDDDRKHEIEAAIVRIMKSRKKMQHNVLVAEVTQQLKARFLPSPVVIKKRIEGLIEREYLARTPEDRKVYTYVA
UniProt P01034: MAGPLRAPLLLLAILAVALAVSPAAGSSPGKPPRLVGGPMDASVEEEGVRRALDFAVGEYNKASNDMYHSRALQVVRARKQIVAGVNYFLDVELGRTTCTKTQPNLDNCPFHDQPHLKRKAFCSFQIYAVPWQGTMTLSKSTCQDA
UniProt Q8N465: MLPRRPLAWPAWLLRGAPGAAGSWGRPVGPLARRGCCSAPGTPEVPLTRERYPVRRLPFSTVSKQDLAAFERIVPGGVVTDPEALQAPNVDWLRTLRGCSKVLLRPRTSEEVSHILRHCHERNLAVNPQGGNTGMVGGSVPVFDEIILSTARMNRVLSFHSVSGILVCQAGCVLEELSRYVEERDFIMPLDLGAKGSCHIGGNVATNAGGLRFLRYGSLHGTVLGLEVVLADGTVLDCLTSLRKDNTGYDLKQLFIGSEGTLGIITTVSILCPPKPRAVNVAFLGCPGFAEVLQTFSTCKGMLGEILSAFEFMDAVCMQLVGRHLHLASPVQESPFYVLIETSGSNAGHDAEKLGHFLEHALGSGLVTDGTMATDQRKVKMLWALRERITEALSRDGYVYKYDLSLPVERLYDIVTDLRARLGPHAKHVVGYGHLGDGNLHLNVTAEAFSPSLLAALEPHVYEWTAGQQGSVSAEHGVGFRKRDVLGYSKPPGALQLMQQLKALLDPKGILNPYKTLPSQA
UniProt Q9UHQ9: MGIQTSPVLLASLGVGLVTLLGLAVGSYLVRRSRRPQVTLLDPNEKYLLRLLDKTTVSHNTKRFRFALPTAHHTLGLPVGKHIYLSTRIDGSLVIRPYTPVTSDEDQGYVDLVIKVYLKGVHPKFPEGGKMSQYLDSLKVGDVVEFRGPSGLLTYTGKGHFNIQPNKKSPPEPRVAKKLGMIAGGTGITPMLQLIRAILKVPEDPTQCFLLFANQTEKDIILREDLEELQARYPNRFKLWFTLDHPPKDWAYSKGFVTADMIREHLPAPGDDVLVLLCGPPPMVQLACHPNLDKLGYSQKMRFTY
UniProt Q96F07, whole entry, looked up: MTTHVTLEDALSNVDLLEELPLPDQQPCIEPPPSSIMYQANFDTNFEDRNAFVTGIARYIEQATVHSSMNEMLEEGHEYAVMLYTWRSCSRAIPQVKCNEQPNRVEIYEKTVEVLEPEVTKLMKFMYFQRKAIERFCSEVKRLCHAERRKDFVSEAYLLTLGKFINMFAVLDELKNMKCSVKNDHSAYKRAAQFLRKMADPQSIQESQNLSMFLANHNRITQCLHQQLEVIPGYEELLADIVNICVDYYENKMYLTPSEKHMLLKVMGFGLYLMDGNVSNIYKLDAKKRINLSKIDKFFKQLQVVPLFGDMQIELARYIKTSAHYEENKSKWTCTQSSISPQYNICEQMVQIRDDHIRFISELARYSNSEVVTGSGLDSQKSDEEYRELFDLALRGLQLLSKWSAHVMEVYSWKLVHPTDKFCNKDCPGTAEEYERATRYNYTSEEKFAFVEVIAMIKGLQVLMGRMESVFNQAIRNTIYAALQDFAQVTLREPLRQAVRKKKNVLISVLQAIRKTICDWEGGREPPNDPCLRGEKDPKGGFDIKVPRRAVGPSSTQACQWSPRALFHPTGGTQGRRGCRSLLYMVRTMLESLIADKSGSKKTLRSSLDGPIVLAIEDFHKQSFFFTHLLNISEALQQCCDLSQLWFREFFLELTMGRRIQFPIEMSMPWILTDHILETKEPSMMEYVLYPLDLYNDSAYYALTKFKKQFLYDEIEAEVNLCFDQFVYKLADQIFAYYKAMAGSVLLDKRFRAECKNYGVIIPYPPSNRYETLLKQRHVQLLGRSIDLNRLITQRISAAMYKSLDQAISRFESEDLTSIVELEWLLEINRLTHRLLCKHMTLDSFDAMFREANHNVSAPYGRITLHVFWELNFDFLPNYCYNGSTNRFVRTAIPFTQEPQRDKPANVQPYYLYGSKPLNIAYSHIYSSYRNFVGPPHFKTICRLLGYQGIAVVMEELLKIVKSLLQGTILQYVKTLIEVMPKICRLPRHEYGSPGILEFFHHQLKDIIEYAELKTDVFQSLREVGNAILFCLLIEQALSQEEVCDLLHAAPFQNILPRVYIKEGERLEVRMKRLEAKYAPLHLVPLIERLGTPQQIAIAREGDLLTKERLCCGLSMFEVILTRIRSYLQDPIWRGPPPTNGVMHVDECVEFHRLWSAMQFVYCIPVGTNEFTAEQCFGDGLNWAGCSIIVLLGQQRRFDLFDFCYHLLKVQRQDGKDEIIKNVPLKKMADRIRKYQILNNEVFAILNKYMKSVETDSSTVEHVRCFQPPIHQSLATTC
UniProt Q1MSJ5: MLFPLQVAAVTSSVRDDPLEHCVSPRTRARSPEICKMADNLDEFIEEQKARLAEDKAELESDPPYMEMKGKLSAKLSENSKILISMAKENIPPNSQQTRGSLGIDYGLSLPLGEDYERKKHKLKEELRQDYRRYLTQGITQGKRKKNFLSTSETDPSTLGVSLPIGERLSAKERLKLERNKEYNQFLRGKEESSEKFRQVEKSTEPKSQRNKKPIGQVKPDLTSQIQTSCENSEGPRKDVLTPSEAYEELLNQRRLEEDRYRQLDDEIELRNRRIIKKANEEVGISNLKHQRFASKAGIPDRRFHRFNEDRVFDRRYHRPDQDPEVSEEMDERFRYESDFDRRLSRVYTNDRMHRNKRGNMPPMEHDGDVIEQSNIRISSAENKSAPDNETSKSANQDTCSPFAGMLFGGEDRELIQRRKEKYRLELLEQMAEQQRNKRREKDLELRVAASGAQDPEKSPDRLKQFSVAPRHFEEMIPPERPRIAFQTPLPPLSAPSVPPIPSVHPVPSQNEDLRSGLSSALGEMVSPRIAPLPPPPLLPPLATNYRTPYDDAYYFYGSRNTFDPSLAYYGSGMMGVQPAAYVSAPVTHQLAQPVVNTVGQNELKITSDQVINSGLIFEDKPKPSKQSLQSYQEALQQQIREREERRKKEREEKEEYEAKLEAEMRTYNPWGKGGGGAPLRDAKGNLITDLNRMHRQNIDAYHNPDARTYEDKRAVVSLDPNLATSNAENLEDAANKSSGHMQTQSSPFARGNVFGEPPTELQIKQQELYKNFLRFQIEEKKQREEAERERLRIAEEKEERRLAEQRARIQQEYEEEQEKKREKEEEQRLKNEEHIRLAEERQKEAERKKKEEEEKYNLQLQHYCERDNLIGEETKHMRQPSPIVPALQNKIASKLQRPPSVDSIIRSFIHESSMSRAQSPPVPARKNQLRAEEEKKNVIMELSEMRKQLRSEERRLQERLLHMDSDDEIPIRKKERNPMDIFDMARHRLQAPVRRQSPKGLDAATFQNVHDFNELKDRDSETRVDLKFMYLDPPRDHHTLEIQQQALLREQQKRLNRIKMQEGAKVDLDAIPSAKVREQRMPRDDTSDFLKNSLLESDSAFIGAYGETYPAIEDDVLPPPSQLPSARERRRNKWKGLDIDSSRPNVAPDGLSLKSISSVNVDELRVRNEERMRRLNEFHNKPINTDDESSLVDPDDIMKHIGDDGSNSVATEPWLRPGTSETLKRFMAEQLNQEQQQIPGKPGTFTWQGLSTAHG
UniProt O75935, whole entry, looked up: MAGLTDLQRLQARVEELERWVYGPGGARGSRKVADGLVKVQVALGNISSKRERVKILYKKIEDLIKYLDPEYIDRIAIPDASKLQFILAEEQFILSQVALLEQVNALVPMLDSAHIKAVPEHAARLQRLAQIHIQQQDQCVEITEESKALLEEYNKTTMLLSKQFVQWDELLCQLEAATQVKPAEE
UniProt P08574: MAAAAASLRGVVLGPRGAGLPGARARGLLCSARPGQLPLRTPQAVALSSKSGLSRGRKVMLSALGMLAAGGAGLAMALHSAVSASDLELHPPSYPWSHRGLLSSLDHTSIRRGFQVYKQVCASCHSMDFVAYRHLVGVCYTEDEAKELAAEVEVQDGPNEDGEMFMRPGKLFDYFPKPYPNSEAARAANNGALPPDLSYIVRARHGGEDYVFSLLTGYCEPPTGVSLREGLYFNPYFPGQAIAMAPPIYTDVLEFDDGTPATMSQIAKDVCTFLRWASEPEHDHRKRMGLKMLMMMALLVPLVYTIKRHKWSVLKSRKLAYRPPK
UniProt Q2VPK5: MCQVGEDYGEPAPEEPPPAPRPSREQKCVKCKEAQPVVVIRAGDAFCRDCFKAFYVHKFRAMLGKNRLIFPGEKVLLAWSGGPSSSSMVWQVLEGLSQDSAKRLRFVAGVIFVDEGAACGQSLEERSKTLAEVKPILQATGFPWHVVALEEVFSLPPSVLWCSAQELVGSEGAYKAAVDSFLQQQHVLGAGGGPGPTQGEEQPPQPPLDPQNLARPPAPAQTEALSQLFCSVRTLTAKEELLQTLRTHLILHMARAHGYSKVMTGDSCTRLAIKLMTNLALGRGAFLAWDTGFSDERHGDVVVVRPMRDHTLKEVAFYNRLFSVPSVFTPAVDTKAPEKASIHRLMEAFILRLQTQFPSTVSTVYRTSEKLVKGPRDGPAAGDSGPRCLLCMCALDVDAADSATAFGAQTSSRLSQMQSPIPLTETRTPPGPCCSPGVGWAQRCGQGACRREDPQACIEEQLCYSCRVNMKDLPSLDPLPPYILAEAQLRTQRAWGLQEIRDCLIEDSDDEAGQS

These targets were tested with CN(C)CC(=O)Nc1ccc2[nH]c(=O)c3ccccc3c2c1 (assay: log2 fold change, soluble protein after heating vs DMSO (PISA); higher = thermal stabilisation; K562 cells, 10 uM, 30 min; active = over 0.2 and 3.5 SD of the protein, either way, in both replicates (recomputed)).
Method in brief: (§1)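 Soluble protein was defined as the supernatant after 21,000xg for 90 min. It came from K562 cells at 2×10^6 cells/mL given 10 μM compound for 30 min, heated in aliquots for 3 min across 48°C-58°C, pooled, and extracted in PBS with 0.5% NP-40 at 4°C, and was quantified by TMTpro 16plex LC-MS/MS with equalised channel sums. Thermal stability against control samples, from duplicates, is reported as log2 fold change.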

log2 fold change, inactive:
CT47A1 (UniProt Q5JQC4) -0.083
CWC27 (UniProt Q6UX04) 0.066
CYB5B, A0A499FJ32 0.047
CUX1 isoform 2 (UniProt Q13948) 0.317
CYB5R4 (UniProt Q7L1T6) 0.001
CYHR1 (UniProt E9PJD7) 0.071
DCAF7 (UniProt P61962) 0
CT45A10 (UniProt P0DMU9) -0.044
CTPS1 (UniProt P17812) -0.009
CTH (UniProt P32929) -0.016
CTNNA2 (UniProt P26232) -0.01
CUL1 (UniProt Q13616) -0.016
CTSL (UniProt P07711) -0.074
CTNNB1 (UniProt P35222) -0.151
CYB5R3 isoform 3 (UniProt P00387) -0.035
CUTA isoform 2 (UniProt O60888) 0.175
CTIF isoform 2 (UniProt O43310) -0.139
CUL3 (UniProt Q13618) 0.014
CUL2 isoform 2 (UniProt Q13617) 0.005
CST3 (UniProt P01034) -0.073
DAG1 (UniProt Q14118) 0.012
D2HGDH (UniProt Q8N465) 0.062
CTSV (UniProt O60911) 0.012
CSTF1 (UniProt Q05048) -0.021
CYB5R1 (UniProt Q9UHQ9) -0.002
CTBP1 (UniProt Q13363) -0.016
CYFIP2 (UniProt Q96F07) 0.007
CUEDC2 (UniProt Q9H467) -0.01
CXorf56 (UniProt Q9H5V9) 0.012
CSPP1 (UniProt Q1MSJ5) 0.036
DCAF15 (UniProt Q66K64) 0.127
CSTF3 (UniProt Q12996) -0.002
CYFIP1 (UniProt Q7L576) 0.024
DCTN3 (UniProt O75935) 0.053
DBR1 (UniProt Q9UK59) -0.019
CYC1 (UniProt P08574) -0.031
CTU2 (UniProt Q2VPK5) -0.021
CTBS (UniProt Q01459) 0.013
DCAF10 (UniProt Q5QP82) -0.043
CTTN (UniProt Q14247) -0.034

What follows are targets tested with CN(CCOC1=CC=C(C=C1)C[C@H]2C(=O)NC(=O)S2)C3=CC=CC=N3 (racemic) [rosiglitazone] in the same assay as above.
Method in brief: as §1

log2 fold change, inactive:
CT47A1 (UniProt Q5JQC4) -0.015
CYB5B, A0A499FJ32 0.062
CYB5R4 (UniProt Q7L1T6) 0.012
CYHR1 (UniProt E9PJD7) -0.012
DCAF7 (UniProt P61962) 0.042
CT45A10 (UniProt P0DMU9) -0.094
CTPS1 (UniProt P17812) 0.003
CTH (UniProt P32929) -0.002
CTNNA2 (UniProt P26232) 0.003
CUL1 (UniProt Q13616) -0.005
CYB5R3 isoform 3 (UniProt P00387) -0.006
CTIF isoform 2 (UniProt O43310) -0.006
CUL3 (UniProt Q13618) 0.013
CUL2 isoform 2 (UniProt Q13617) 0.023
CST3 (UniProt P01034) 0
D2HGDH (UniProt Q8N465) 0.126
CSTF1 (UniProt Q05048) 0.001
CYB5R1 (UniProt Q9UHQ9) 0.009
CTBP1 (UniProt Q13363) -0.002
CYFIP2 (UniProt Q96F07) 0.018
CXorf56 (UniProt Q9H5V9) 0.024
CSPP1 (UniProt Q1MSJ5) 0.049
DCAF15 (UniProt Q66K64) 0.039
DCTN3 (UniProt O75935) 0.047
CYC1 (UniProt P08574) -0.005
CTU2 (UniProt Q2VPK5) 0.038
CTTN (UniProt Q14247) -0.007

What follows are targets tested with CN1C2=C(C3=C1C(=O)N(N=C3)CC4=CC(=CC=C4)N)SC(=C2)S(=O)C in the same assay as above.
Method in brief: as §1

log2 fold change, inactive:
CT47A1 (UniProt Q5JQC4) -0.011
CWC27 (UniProt Q6UX04) -0.011
CYB5B, A0A499FJ32 -0.009
CUX1 isoform 2 (UniProt Q13948) 0.016
CYB5R4 (UniProt Q7L1T6) -0.038
CYHR1 (UniProt E9PJD7) 0.011
DCAF7 (UniProt P61962) -0.003
CT45A10 (UniProt P0DMU9) 0.092
CTPS1 (UniProt P17812) -0.048
CTH (UniProt P32929) -0.101
CTNNA2 (UniProt P26232) -0.039
CUL1 (UniProt Q13616) -0.051
CTSL (UniProt P07711) 0.019
CTNNB1 (UniProt P35222) -0.185
CYB5R3 isoform 3 (UniProt P00387) -0.026
CUTA isoform 2 (UniProt O60888) 0.164
CTIF isoform 2 (UniProt O43310) -0.07
CUL3 (UniProt Q13618) -0.073
CUL2 isoform 2 (UniProt Q13617) -0.109
CST3 (UniProt P01034) -0.061
DAG1 (UniProt Q14118) -0.075
D2HGDH (UniProt Q8N465) 0.035
CTSV (UniProt O60911) -0.081
CSTF1 (UniProt Q05048) -0.057
CYB5R1 (UniProt Q9UHQ9) -0.067
CTBP1 (UniProt Q13363) -0.068
CYFIP2 (UniProt Q96F07) -0.064
CUEDC2 (UniProt Q9H467) -0.038
CXorf56 (UniProt Q9H5V9) 0.033
CSPP1 (UniProt Q1MSJ5) 0.046
DCAF15 (UniProt Q66K64) 0.027
CSTF3 (UniProt Q12996) -0.048
CYFIP1 (UniProt Q7L576) 0.001
DCTN3 (UniProt O75935) -0.024
DBR1 (UniProt Q9UK59) -0.034
CYC1 (UniProt P08574) -0.036
CTU2 (UniProt Q2VPK5) -0.095
CTBS (UniProt Q01459) 0.045
DCAF10 (UniProt Q5QP82) -0.026
CTTN (UniProt Q14247) -0.064
